The text below walks through data of US20140248710.

Data set [1] relates to Thrombin. Kind of data set: SELEX. Particulars: recurrent clone, purified native protein, protein details: gift from Dr. Ray Rezaie (St. Louis University).
Data set [2] deals with Thrombin. Kind of data set: binding assay. Particulars: 5 Spacer18 linkers, FRET beacon, purified native protein, protein details: gift from Dr. Ray Rezaie (St. Louis University), Texas Red (THR27), folded or branched DNA.
Data set [3] has as its system Thrombin. Kind of data set: EMSA. The following applies: purified native protein, protein details: gift from Dr. Ray Rezaie (St. Louis University). For orientation: A gel shift assay detects complexes by their altered migration in electrophoresis.
Data set [4] deals with Prothrombin (UniProt P00734). Kind of data set: binding assay. The following applies: 5 Spacer18 linkers, amino-dT in THR27; reduced beacon sensitivity compared with thrombin; beacon variant not explicitly stated; purified native protein; protein details: Sigma; label: 5' fluorescein (THR21), Texas Red (THR27); folded or branched DNA.
Data set [5] deals with Factor Xa. Kind of data set: binding assay. The following applies: 5 Spacer18 linkers, amino-dT in THR27; no effect on beacon signal without thrombin; beacon variant not explicitly stated; purified native protein; protein details: Sigma; label: 5' fluorescein (THR21), Texas Red (THR27); folded or branched DNA.
Data set [6] concerns the target Single-stranded DNA binding protein (SSB) (Escherichia coli) (UniProt P0AGE0). Kind of data set: binding assay. Particulars: 5 Spacer18 linkers, amino-dT in THR27; no significant beacon response at nM SSB; purified recombinant protein; protein details: Sigma; label: 5' fluorescein (THR21), Texas Red (THR27); folded or branched DNA.
In data set [7] the target is T1, Ovalbumin (UniProt P01012).
T1 sequence (looked up, limits assumed): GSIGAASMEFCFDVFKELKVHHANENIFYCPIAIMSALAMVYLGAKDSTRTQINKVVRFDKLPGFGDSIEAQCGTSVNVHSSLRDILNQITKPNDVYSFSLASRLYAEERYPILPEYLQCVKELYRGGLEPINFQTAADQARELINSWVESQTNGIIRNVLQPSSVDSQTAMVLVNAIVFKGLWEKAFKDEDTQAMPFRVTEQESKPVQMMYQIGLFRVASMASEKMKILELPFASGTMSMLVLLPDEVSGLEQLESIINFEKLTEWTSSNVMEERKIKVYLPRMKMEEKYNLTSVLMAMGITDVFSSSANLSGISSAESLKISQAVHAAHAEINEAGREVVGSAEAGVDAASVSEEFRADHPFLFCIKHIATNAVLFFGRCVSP
Kind of data set: binding assay. The following applies: 5 Spacer18 linkers, amino-dT in THR27; no effect on beacon signal; beacon variant not explicitly stated; purified native protein; protein details: Sigma; label: 5' fluorescein (THR21), Texas Red (THR27); folded or branched DNA.

Data set [8] concerns Thrombin. Kind of data set: competition with a labelled probe. The following applies: purified native protein, protein details: gift from Dr. Ray Rezaie (St. Louis University); for binding result: stated only as pM range, single-stranded DNA.
The target in data set [9] is Trypsin (UniProt P00760). Kind of data set: binding assay. Particulars: 5 Spacer18 linkers; no beacon signal; purified native protein; protein details: Sigma; label: 3' dabcyl (THR20), 5' fluorescein (THR21); folded or branched DNA.
Data set [10] deals with Thrombin. Kind of data set: inhibition of the protein. Particulars: blood clotting; beacon about 240 times more effective than THR3; purified native protein; protein details: gift from Dr. Ray Rezaie (St. Louis University); single-stranded DNA; dose not given here.
The mark [11] stands for this setting: individual binding not measured, single-stranded ….

For part of these data: Construct, isoform or probe ends are uncertain for at least one entry. For part of these data: No signal at the amounts used counts as a negative. For part of these data: Protein sequences can lack the tags named with them. For part of these data: The direction of at least one scale is not stated here. Some results are limits rather than exact numbers.

In the case of “GCAGTAGGTACTATATTGGCTAGGGTGGTCTGC [Clone 5 (= 6, 29, 31, 32, 33)]”, the selection result in data set [1] (setting [11]) was “selected”.
Regarding “AGATGCGAGGTTGGGGGTACTAGGTATCAATGGGTAGGGTGGTGTAACGC / GGTTGGTGTGGTTGGCTCGCATCT [THR35/THR27 beacon]”, the binding result in data set [2] (20 or 100 nM sensor, label: 5' fluorescein (THR35)) is “binds”.
With “GGATGCGTAATGGTTAGGGTGGGTAGGGTATCC [Clone 2 (= 3, 4, 8)]”, the selection result in data set [1] (setting [11]) is reported as “selected”.
Still for that read-out and setting: with “GGGTAGGGTGGTTGTAATAGGGATTGCGAT [Clone 1-1 (= 1-2, 1-4, 1-5, 1-9)]” the entry was “selected”; with “TAGGATGGGTAGGGTGGTCCCAGGAATGGC [Clone 2-8 (= 2-12)]”, “selected”.
For the sequence “AGATGCGAGTGAAGGTTGGGGGTACTAGGTATCAATGGGTAGGGTGGTGTAACGCCATAT / GGTTGGTGTGGTTGGCTCGCATCT [THR36/THR27 beacon]”, in data set [2] (20 or 100 nM sensor, label: 5' fluorescein (THR36)), the binding result is “binds”.
For “CAGGATGGGTAGGGTGGTCAGCGAAGCAGTAGG [Clone 13 (= 15, 19)]”, in data set [1] (setting [11]), the selection result is reported as “selected”.
With “GGTTGGTGTGGTTGGAGTCCGTGGTAGGGCAGGTTGGGGTGACT [THR7 bivalent]”, the binding result in data set [3] (10 Spacer18 between G15D and 60-18[29], 1:1 stoichiometry, single-stranded DNA) is given as “binds”.
In [4], “AGATGCGAGTCCGTGGTAGGGCAGGTTGGGGTGACT / GGTTGGTGTGGTTGGCTCGCATCT [THR21/THR27 beacon]” came in with a binding signal of more than 20 fold. In addition, the binding result was “no binding” in [5]; “no binding” in data set [6]; “no binding” in data set [7]; “binds” in [2] (amino-dT in THR27, label: 5' fluorescein (THR21)).
As for “GGTAGGGTGGTTAAAATAGGGGAATGGCAG [Clone 2-4 (= 2-7, 2-10)]”, the selection result in data set [1] (setting [11]) is listed as “selected”.
Take “GGTTGGTGTGGTTGGCGCATCT / AGATGCGAGTCCGTGGTAGGGCAGGTTGGGGTGACT [THR20/THR21 beacon]”: the binding signal in data set [8] (5 Spacer18 linkers, mixture binds tighter than individual aptamers, label: 3' dabcyl (THR20), 5' fluorescein (THR21), folded or branched DNA) came out at 36 fold. In addition, the binding result in data set [3] (5 Spacer18 linkers, stable complex with THR20, THR21 and thrombin, label: 3' dabcyl (THR20), 5' fluorescein (THR21), folded or branched DNA) was “binds”; in [9], “no binding”.
For “AGTCCGTGGTAGGGCAGGTTGGGGTGACT [THR3 (60-18 [29])]”, the “functional effect of the aptamer” value in [10] is given as “active”.
For the sequence “AGTCCGTGGTAGGGCAGGTTGGGGTGACTGGTTGGTGTGGTTGG [THR5 bivalent]”, the binding result in data set [8] (5 Spacer18 between 60-18[29] and G15D, slightly weaker than THR6, reduced competition when THR3 in excess) is on record as “binds”.
As for “GGGGGTACTAGGTATCAATGGGTAGGGTGGTGT [Clone 20 (= 21, 24, 26)]”, the selection result in data set [1] (verified in sensor as THR35 and THR36, single-stranded DNA) is reported as “selected”.
With “AGTCCGTGGTAGGGCAGGTTGGGGTGACTGGTTGGTGTGGTTGG [THR6 bivalent]”, in data set [8] (10 Spacer18 between 60-18[29] and G15D, weaker than THR7, variant of THR5 bivalent), the binding result is “binds”.
